From PubChem BioAssay AID624291 (National Center for Advancing Translational Sciences (NCATS), 2012)
Screen size: about 350,000 compounds; about 220 (0.063%) were called active. Inconclusive results, whose numbers are uncertain, are shown with a selection of clear calls. The call rests on the fitted dose curve; in most records, active means well fitted activation curve with a large enough effect; inconclusive means small, poorly fitted or top-dose-only effect; inactive means no such curve, though single readings can be large or run the other way. Where the call is inconclusive, the potency comes from a doubtful curve fit.

Assay: qHTS for Activators of Integrin-Mediated Alleviation for Muscular Dystrophy; further: nearly all actives have a fitted effect of over 60% in size;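 on activation: 100% = response of the positive control SU9516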
Conditions: alpha7betagal myoblasts, beta-gal FDG fluorescence, 48 h; activation: at 38.3 µM (top of the series)
In short: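 Alpha7betagal+/- myoblasts (passage 13) were plated 16-24 hr, then exposed to compounds (1:260 dilution of DMSO stock) for 48 hours at 37C. After MPER lysis, β-galactosidase reporter activity was read as FDG fluorescence (ex 480/em 540) after 30 minutes.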
Potency means the concentration at half of the fitted maximal effect.

Row | Compound | Potency | activation
1 | O=C(Nc1ccc(C(=O)N2CCN(c3ccccc3F)CC2)cc1)C1=CSCCO1 | inconclusive: 2.82 µM [activator, partial curve, poor fit] | –
2 | S=C(N/N=C/c1ccco1)NC1CC2CCC1C2 (stereo unspecified) | inactive | –
3 | CNC(=S)N(CCc1c(C)[nH]c2ccc(F)cc12)Cc1ccco1 | inconclusive: 5.01 µM [activator, single point] | –
4 | COc1ccc(N(CCC#N)C(=O)/C(C#N)=C\c2cccs2)cc1 | inactive | –
5 | COc1ccccc1NC(=O)c1ccc(-c2nn(C)c(=O)c3ccccc23)cc1 | inconclusive: 10 µM [activator, single point] | –
6 | Cc1ccc(-c2nnn3c2nc(NCCc2ccc(S(N)(=O)=O)cc2)c2ccccc23)cc1 | inconclusive: 5.01 µM [activator, single point] | –
7 | COc1ccc(NC(=O)CCCC(=O)O)cc1Cl | inconclusive: 0.891 µM [activator, full curve, poor fit] | –
8 | COc1cccc(NC(=O)CN(C)CC(=O)Nc2ccc(Cl)cc2[N+](=O)[O-])c1 | inactive | –
9 | COC(=O)Cn1cnc2c(nnn2-c2cccc(OC)c2)c1=O | inconclusive: 1.26 µM [activator, partial curve, poor fit] | –
10 | O=C1CC(c2cccc(F)c2)SC(N(c2ccccc2)c2ccccc2)=N1 (stereo unspecified) | inconclusive: 11.2 µM [activator, single point] | –
11 | Cc1ccc(S(=O)(=O)N2CCN(C(=O)c3ccc(Br)o3)CC2)c(C)c1 | inconclusive: 20 µM [activator, single point] | –
12 | Cc1ccc(/C=C/C(=O)NC2=NCCS2)cc1 | inactive | –
13 | Cc1cc(C)nc(N(C#N)CN2C(=O)c3ccccc3S2(=O)=O)n1 | inactive | –
14 | CC1Cc2ccccc2N1C(=O)CSc1nnc(N)s1 (stereo unspecified) | inconclusive: 7.08 µM [activator, partial curve, poor fit] | –
15 | CN(CCCC1CCCC1)C(=O)c1cc(COc2ccc(F)c(F)c2)on1 | inconclusive: 22.4 µM [activator, single point] | –
16 | COc1cc(C=C2C(=O)OC(C)(C)OC2=O)cc(Cl)c1OCC(=O)Nc1ccccc1 | inconclusive: 0.501 µM [activator, partial curve, poor fit] | –
17 | CC1(C)CC(=O)C2=C(C1)OC(=O)CC2c1cccs1 (stereo unspecified) | inconclusive: 3.16 µM [activator, single point] | –
18 | O=S(=O)(Nc1ccccn1)c1cc(Cl)ccc1Cl | inconclusive: 5.01 µM [activator, single point] | –
19 | COCCNC(=O)c1sc2ncn(CC(=O)Nc3ccc(C)c(Cl)c3)c(=O)c2c1C | inconclusive: 5.01 µM [activator, single point] | –
20 | Cc1ccccc1OCC(=O)NCCCNC(=O)c1ccncc1 | inconclusive: 28.2 µM [activator, single point] | –
21 | C=CCc1ccccc1OCC(=O)N/N=C/c1ccc(OC(C)=O)cc1OC(C)=O | inactive | –
22 | COc1cccc(CNC(=O)CSc2nc(=O)n(Cc3ccncc3)c3c2CCC3)c1 | inactive | –

Row | Compound | Potency | activation
23 | O=C(Cc1ccc(NS(=O)(=O)c2ccc(F)cc2)cc1)NCc1cccnc1 | inconclusive: 5.01 µM [activator, single point] | –
24 | Nc1ncnc2c1ncn2CCc1ccccc1 | inconclusive: 3.16 µM [activator, single point] | –
25 | COC(=O)c1ccc(COC(=O)CNC(=O)c2cccs2)cc1 | inconclusive: 3.55 µM [activator, partial curve] | –
26 | COc1cccc(Nc2c(Nc3cccc(OC)c3)c(=O)c2=O)c1 | inconclusive: 3.55 µM [activator, single point] | –
27 | CCN(CC)S(=O)(=O)c1cccc(-c2nnc(SCc3nnc(-c4cccs4)o3)n2N)c1 | inactive | –
28 | CCOc1ccc(C2C3=C(CCCC3=O)Nc3ccc4ncccc4c32)cc1 (stereo unspecified) | inconclusive: 2.24 µM [activator, partial curve, poor fit] | –
29 | Cc1ccc(-n2nnc3c(=O)n(CC(N)=O)cnc32)cc1 | inconclusive: 5.01 µM [activator, single point] | –
30 | Cc1ccccc1CCN(C(=O)c1csnn1)C(C(=O)NC1CCCC1)c1ccncc1 (stereo unspecified) | inconclusive: 5.01 µM [activator, single point] | –
31 | O=C(OC1CCOC1=O)c1cc(-c2ccc(Br)cc2)nc2ccccc12 (stereo unspecified) | inconclusive: 28.2 µM [activator, single point] | –
32 | Cc1c(C)c2ccc(OC(C)C(=O)NCCCN3CCOCC3)c(C)c2oc1=O (stereo unspecified) | inconclusive: 3.16 µM [activator, single point] | –
33 | COc1ccc(NC(=O)Nc2cc(C)cc(C)c2)cn1 | inconclusive: 5.01 µM [activator, single point] | –
34 | C/C(=N\NC(=O)c1ccccc1Br)c1ccc(N2CCOCC2)cc1 | inconclusive: 11.2 µM [activator, partial curve, poor fit] | –
35 | CC(C)(C)N(Cc1cc2ccccc2[nH]c1=O)C(=O)c1cccc([N+](=O)[O-])c1 | inconclusive: 5.01 µM [activator, single point] | –
36 | CCc1cc2c(=O)c(-c3nc4ccccc4n3C)coc2c(CN2CCCCC2)c1O | inconclusive: 1 µM [activator, partial curve, poor fit] | –
37 | CC(C)Cn1c(=O)c2sccc2n2c(CCCC(=O)N3CCC(N4CCCCC4)CC3)nnc12 | inconclusive: 10 µM [activator, partial curve, poor fit] | –
38 | CCOC(=O)c1[nH]c(C)c(C(=O)N2CCN(c3ccccc3OC)CC2)c1C | inconclusive: 0.447 µM [activator, full curve, poor fit] | –
39 | COc1ccc(-c2nnc(SCC(=O)N/N=C/c3ccccc3C(=O)O)n2-c2ccc(Cl)cc2)cc1 | – | inconclusive: -46.7% [activator]
40 | CC(=O)c1cccc(NS(=O)(=O)c2ccc(NC(=O)N3CCCCC3)cc2)c1 | inactive | –
41 | C=CCNC(=S)N/N=C(\C)c1ccc(-n2ccnc2)cc1 | – | inconclusive: 13.8% [activator]
42 | Brc1ccc(-c2csc(N3CCOCC3)n2)cc1 | inconclusive: 0.501 µM [activator, partial curve, poor fit] | –
43 | CC(CNC(=O)c1ccc(N)cc1)NC(=O)c1ccc(N)cc1 (stereo unspecified) | inconclusive: 5.01 µM [activator, single point] | –
44 | COc1ccc(-c2[nH]ncc2/C=C(/C#N)C(=O)NC2CCCCCC2)cc1 | inactive | –

Row | Compound | Potency | activation
45 | NNC(=O)c1[nH]c2ccc(Br)cc2c1-c1ccccc1 | inconclusive: 11.2 µM [activator, single point] | –
46 | O=C(CCN1C(=O)/C(=C\c2ccco2)SC1=S)Nc1ccc(C(=O)O)c(O)c1 | inactive | –
47 | CCOc1nc(Nc2ccc(OC)cc2)nc(N2CCOCC2)n1 | inconclusive: 12.6 µM [activator, single point] | –
48 | CCOc1cccc(CN2CCCC(N3CCN(c4cccc(Cl)c4)CC3)C2)c1O (stereo unspecified) | inconclusive: 5.01 µM [activator, single point] | –
49 | O=C(Nc1ccc(S(=O)(=O)NC2=NCCCCC2)cc1)c1ccc(=O)[nH]c1 | inconclusive: 28.2 µM [activator, single point] | –
50 | Cc1cc(/C=C2\SC(=S)NC2=O)c(C)n1-c1cccc(O)c1 | inconclusive: 31.6 µM [activator, single point] | –
51 | CC(C)=CC(=O)NCCc1ccccc1 | inactive | –
52 | Cc1cccn2c(=O)c3cc(C(=O)N4CCCCC4)sc3nc12 | inconclusive: 0.794 µM [activator, full curve, poor fit] | –
53 | O=C(NCCCN1CCOCC1)C(C(=O)NCCCN1CCOCC1)c1ncc(C(F)(F)F)cc1Cl | inconclusive: 10 µM [activator, single point] | –
54 | COC(=O)Cc1ccc(NC(=O)c2ccc(C(C)(C)C)cc2)cc1 | inactive | –
55 | O=C(COC(=O)CNC(=O)c1ccco1)Nc1ccccc1OC(F)F | inconclusive: 10 µM [activator, single point] | –
56 | COc1ccc(-c2csc(NC(=O)c3c(OC)cccc3OC)n2)cc1 | inactive | –
57 | COc1ccccc1N(CC(=O)NCCc1ccccc1)C(=O)CCC(=O)Nc1ccccn1 | inconclusive: 1.78 µM [activator, single point] | –
58 | CN(C)c1ccc(NC(=S)N(CCc2ccccc2)C2CC(=O)N(c3c(Cl)cccc3Cl)C2=O)cc1 (stereo unspecified) | inconclusive: 8.91 µM [activator, partial curve, poor fit] | –
59 | CCc1nnc(NC(=O)CSc2nnc3c4ccccc4n(C)c3n2)s1 | inconclusive: 5.01 µM [activator, single point] | –
60 | O=C(/C=C/c1ccc(Br)cc1)N1CCN(Cc2ccccc2)CC1 | inactive | –
61 | O=C(Cc1ccc(-c2ccccc2)cc1)Nc1ccccn1 | inconclusive: 28.2 µM [activator, single point] | –
62 | Cc1nc(N2CCOCC2)[nH]c(=O)c1[N+](=O)[O-] | inconclusive: 11.2 µM [activator, single point] | –
63 | O=C(CSc1nc2[nH]ncc2c(=O)[nH]1)Nc1ccc(F)cc1 | inconclusive: 3.55 µM [activator, partial curve, poor fit] | –
64 | O=C(Nc1ccc(F)c(Cl)c1)N1CCCCCC1 | inconclusive: 2.51 µM [activator, single point] | –
65 | Cc1cccc(Nc2c([N+](=O)[O-])c(=O)oc3ccccc23)c1 | inconclusive: 2.82 µM [activator, single point] | –
66 | COc1ccccc1C(=O)NCCC(=O)N1CCCC(C)C1 (stereo unspecified) | inconclusive: 5.01 µM [activator, single point] | –

Taken from above:
Cc1nc(N2CCOCC2)[nH]c(=O)c1[N+](=O)[O-] | Potency: inconclusive: 11.2 µM [activator, single point]
CCOc1cccc(CN2CCCC(N3CCN(c4cccc(Cl)c4)CC3)C2)c1O (stereo unspecified) | Potency: inconclusive: 5.01 µM [activator, single point]
O=C(/C=C/c1ccc(Br)cc1)N1CCN(Cc2ccccc2)CC1 | Potency: inactive
NNC(=O)c1[nH]c2ccc(Br)cc2c1-c1ccccc1 | Potency: inconclusive: 11.2 µM [activator, single point]
COc1ccccc1C(=O)NCCC(=O)N1CCCC(C)C1 (stereo unspecified) | Potency: inconclusive: 5.01 µM [activator, single point]
